# Test results reported in PubChem BioAssay AID540256 (National Center for Advancing Translational Sciences (NCATS), 2011).
# In all, about 300,000 compounds went through this assay and about 3,700 (1.2%) were called active. The shares of active, inactive and inconclusive entries below differ from those in the screen. Calls come from the whole dose curve; tested in HEK293 cells. Where the call is inconclusive, the potency comes from a doubtful curve fit.
# Test: qHTS for Inhibitors of binding or entry into cells for Lassa Virus; note: nearly all actives have a fitted effect of over 50% in size
# Details: Lassa virus pseudotype entry inhibition, cell reporter; series mostly up to 37.9 µM
# Potency is the fitted concentration of half-maximal effect.
row,Structure (SMILES),Potency
1,COC(C(=O)N/N=C(\C)c1ccc(C)cc1)c1ccccc1 (centres undefined),inactive
2,Cc1ccc(C(=O)NCC(c2ccc3c(c2)OCO3)N2CCN(c3ccc(F)cc3)CC2)cc1 (centres undefined),"inconclusive: 2.51 µM [inhibitor, full curve]"
3,O=C(CSc1ccc(-c2ccccn2)nn1)c1ccccc1,"inconclusive: 31.6 µM [inhibitor, single point]"
4,CSc1cccc(NC(=O)CCC(=O)O)c1,"inconclusive: 35.5 µM [inhibitor, single point]"
5,CCOc1cccc(/C=C/c2ccc3cccc(O)c3n2)c1O,"inconclusive: 17.8 µM [inhibitor, single point]"
6,Cc1ccc(C(=O)N[C@H](C(=O)OCc2nnc(-c3ccccc3)o2)C(C)C)cc1,inactive
7,COc1ccc(-n2c(=O)c3c4c(sc3n(CC(=O)N3CCCCC3C)c2=O)CCC4)c(OC)c1 (centres undefined),inactive
8,COc1ccccc1N1CCN(S(=O)(=O)c2c(C)sc3ncn(CC(=O)Nc4ccc(C(C)C)cc4)c(=O)c23)CC1,inactive
9,O=C(C1Cc2ccccc2CN1C(=O)c1ccccc1)N1CCN(c2ccccc2)CC1 (centres undefined),"inconclusive: 25.1 µM [inhibitor, partial curve, poor fit]"
10,CC(=O)Nc1ccc(-c2nnn(CC(=O)c3ccccc3)n2)cc1Cl,inactive
11,O=C(N/N=C/c1c[nH]c2ccccc12)c1ccncc1,inactive
12,Cc1cc(C)cc(NC(=O)C2CCCN(c3cnccn3)C2)c1 (centres undefined),inactive
13,O=C1C=C(N2CCOCC2)c2ccccc2C1=O,"inconclusive: 2.51 µM [inhibitor, partial curve, poor fit]"
14,CN(C)CCOCCOc1ccc(Cl)cc1C(C)(C)C,"inconclusive: 12.6 µM [inhibitor, single point]"
15,CC(/C=C1\SC(=Nc2cccnc2)NC1=O)=C\c1ccccc1,"inconclusive: 3.55 µM [inhibitor, full curve, poor fit]"
16,CC(=NNC(=S)N1CC2CCC(CC2)C1)c1ccncn1,active: 0.316 µM
17,O=C(COc1ccccc1Cl)N(Cc1ccco1)Cc1ccco1,inactive
18,O=C(NCc1ccc(F)cc1)C1CCN(S(=O)(=O)c2ccc3c(c2)CCCN3C(=O)C2CCC2)CC1,"inconclusive: 31.6 µM [inhibitor, single point]"
19,CCOC(=O)c1ccc(NC(=O)c2cccc(S(=O)(=O)N3CCN(C(C)=O)CC3)c2)cc1,inactive
20,O=C(CSc1nnc(-c2ccccc2Br)o1)N1CCN(C(=O)c2ccco2)CC1,inactive
21,O=C(/C=C/c1c(F)cccc1Cl)NCc1ccc2c(c1)OCO2,inactive
22,O=C(NN(C(=O)c1ccccc1)c1ccccc1)c1ccccc1,inactive
23,O=C(Nc1ccc(Cl)cc1Cl)c1cc2ccccc2o1,"inconclusive: 1.26 µM [activator, single point]"
24,CN(CC1CCOCC1)C(=O)c1ccc2nc(Cc3cccc(Cl)c3)oc2c1,"inconclusive: 8.91 µM [inhibitor, partial curve, poor fit]"
25,C=CC[n+]1c(-c2ccc(C)cc2)csc1Nc1ccc(NC(C)=O)cc1,active: 2.31 µM

# 9 of these compounds, reformatted.
row	Structure (SMILES)	Potency
4	CSc1cccc(NC(=O)CCC(=O)O)c1	inconclusive: 35.5 µM [inhibitor, single point]
10	CC(=O)Nc1ccc(-c2nnn(CC(=O)c3ccccc3)n2)cc1Cl	inactive
12	Cc1cc(C)cc(NC(=O)C2CCCN(c3cnccn3)C2)c1 (centres undefined)	inactive
15	CC(/C=C1\SC(=Nc2cccnc2)NC1=O)=C\c1ccccc1	inconclusive: 3.55 µM [inhibitor, full curve, poor fit]
18	O=C(NCc1ccc(F)cc1)C1CCN(S(=O)(=O)c2ccc3c(c2)CCCN3C(=O)C2CCC2)CC1	inconclusive: 31.6 µM [inhibitor, single point]
20	O=C(CSc1nnc(-c2ccccc2Br)o1)N1CCN(C(=O)c2ccco2)CC1	inactive
22	O=C(NN(C(=O)c1ccccc1)c1ccccc1)c1ccccc1	inactive
23	O=C(Nc1ccc(Cl)cc1Cl)c1cc2ccccc2o1	inconclusive: 1.26 µM [activator, single point]
24	CN(CC1CCOCC1)C(=O)c1ccc2nc(Cc3cccc(Cl)c3)oc2c1	inconclusive: 8.91 µM [inhibitor, partial curve, poor fit]

# (next part)

row,Structure (SMILES),Potency
1,O=C(Cn1ccc2ccccc2c1=O)NCCC(=O)N1CCN(C2CCCCC2)CC1,inactive
2,CCN(C(=O)c1sc2cc(OC)ccc2c1Cl)c1ccccc1,"inconclusive: 11.2 µM [inhibitor, partial curve, poor fit]"
3,O=S1(=O)CCN(Cc2ccc(Cl)c(C(F)(F)F)c2)CC1,inactive
4,CCCCn1cnc2cc(NCc3cccc(OC)c3O)ccc21,inactive
5,COc1cccc(NC(=O)Nc2ccccc2Br)c1,"inconclusive: 35.5 µM [inhibitor, single point]"
6,COc1ccccc1OCCCCn1c(C2CC(=O)N(c3ccccc3Cl)C2)nc2ccccc21 (centres undefined),"inconclusive: 35.5 µM [inhibitor, single point]"
7,CCCc1nnc(NC(=O)CC(C)c2ccccc2)s1 (centres undefined),inactive
8,O=C(CN1CCN(Cc2ccccc2)CC1)Nc1cccc(S(=O)(=O)N2CCCCCC2)c1,inactive
9,CN1CCc2nc(SCc3ccc(Cl)cc3)c(C#N)c(-c3cccs3)c2C1,inactive
10,Cn1c(N/N=C/c2cccs2)nc2c1c(=O)n(Cc1ccccc1)c(=O)n2C,inactive
11,COc1ccc(Cl)cc1NC(=O)CSc1nc2c([nH]c3ccccc32)c(=O)n1-c1ccccc1,"inconclusive: 35.5 µM [inhibitor, single point]"
12,COc1ccc(OC)c(-c2cnc(OC(C)(C)C)nc2OC(C)(C)C)c1,"inconclusive: 3.26 µM [inhibitor, full curve, poor fit]"
13,O=C(NC1CCCC1)c1cnn(-c2ccc(F)cc2F)c1C1CCNCC1,"inconclusive: 17.8 µM [activator, single point]"
14,Cc1cc(NC(=O)CSc2nnc(-c3ccc4c(c3)OCCO4)o2)no1,"inconclusive: 10 µM [inhibitor, partial curve, poor fit]"
15,Cc1nc2ncccn2c1-c1csc(Nc2ccc(N(C)C)cc2)n1,inactive
16,CCCCNc1ncnc2c1cnn2-c1ccccc1,"inconclusive: 12.6 µM [inhibitor, partial curve, poor fit]"
17,Cc1c(NC(=O)CSc2ccc(Cl)cc2)cccc1-c1nc2ncccc2o1,"inconclusive: 29.1 µM [inhibitor, single point]"
18,CSc1ccc(CNC(=O)Cc2csc3ccccc23)cc1,inactive
19,Cn1cnnc1SCC(=O)N1CCC(Cc2ccccc2)CC1,"inconclusive: 6.31 µM [inhibitor, single point]"
20,O=C(NNC(=O)c1ccc(Cn2cccn2)o1)NC12CC3CC(CC(C3)C1)C2,"inconclusive: 35.5 µM [activator, single point]"
21,Cc1noc(C)c1CSCC(=O)N1CCN(c2ccc([N+](=O)[O-])cc2)CC1,"inconclusive: 11.2 µM [inhibitor, single point]"
22,CC(OC(=O)C1=COCCO1)C(=O)c1ccc(Br)cc1 (centres undefined),inactive
23,CCSc1ccccc1C(=O)Nc1cc(OC)c(OC)c(OC)c1,inactive
24,COc1cc2c3nnc(-c4ccccc4)c-3cn(Cc3ccccc3F)c2cc1OC,"inconclusive: 35.5 µM [inhibitor, partial curve, poor fit]"
